Measurements from PubChem BioAssay (EPA / NIEHS).
Several values for one entry are separate records, joined by “and”; a condition that tells them apart may be missing. Identical values can stand only once. Inconclusive means that the source gave no clear call. Such entries were picked first, then a sample of the others. For some assays here: Potencies beside an inconclusive call are fits to weak or partial responses and may not hold up. Activity calls are given as the source filed them. How the source made its calls, unless noted: active means hit-call score of the fitted dose curve at least 0.9, where 1 is the maximum; inconclusive means response in the unintended direction; inactive means score below 0.9.

Protein sequences, listed by entry. Tags and fused reporters are not part of them. Lines headed by an entry give the natural chain unless they say otherwise; changes in a name come on top.
UniProt P21731: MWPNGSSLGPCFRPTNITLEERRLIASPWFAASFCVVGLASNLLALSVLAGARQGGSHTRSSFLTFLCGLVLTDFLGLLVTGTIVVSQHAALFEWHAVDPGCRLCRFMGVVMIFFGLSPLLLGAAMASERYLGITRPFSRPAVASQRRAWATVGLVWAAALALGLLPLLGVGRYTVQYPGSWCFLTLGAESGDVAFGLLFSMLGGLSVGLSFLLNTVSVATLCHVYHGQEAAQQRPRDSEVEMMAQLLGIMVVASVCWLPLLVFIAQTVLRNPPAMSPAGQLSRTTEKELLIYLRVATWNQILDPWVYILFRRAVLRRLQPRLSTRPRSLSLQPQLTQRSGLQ
UniProt P29317, whole entry, looked up: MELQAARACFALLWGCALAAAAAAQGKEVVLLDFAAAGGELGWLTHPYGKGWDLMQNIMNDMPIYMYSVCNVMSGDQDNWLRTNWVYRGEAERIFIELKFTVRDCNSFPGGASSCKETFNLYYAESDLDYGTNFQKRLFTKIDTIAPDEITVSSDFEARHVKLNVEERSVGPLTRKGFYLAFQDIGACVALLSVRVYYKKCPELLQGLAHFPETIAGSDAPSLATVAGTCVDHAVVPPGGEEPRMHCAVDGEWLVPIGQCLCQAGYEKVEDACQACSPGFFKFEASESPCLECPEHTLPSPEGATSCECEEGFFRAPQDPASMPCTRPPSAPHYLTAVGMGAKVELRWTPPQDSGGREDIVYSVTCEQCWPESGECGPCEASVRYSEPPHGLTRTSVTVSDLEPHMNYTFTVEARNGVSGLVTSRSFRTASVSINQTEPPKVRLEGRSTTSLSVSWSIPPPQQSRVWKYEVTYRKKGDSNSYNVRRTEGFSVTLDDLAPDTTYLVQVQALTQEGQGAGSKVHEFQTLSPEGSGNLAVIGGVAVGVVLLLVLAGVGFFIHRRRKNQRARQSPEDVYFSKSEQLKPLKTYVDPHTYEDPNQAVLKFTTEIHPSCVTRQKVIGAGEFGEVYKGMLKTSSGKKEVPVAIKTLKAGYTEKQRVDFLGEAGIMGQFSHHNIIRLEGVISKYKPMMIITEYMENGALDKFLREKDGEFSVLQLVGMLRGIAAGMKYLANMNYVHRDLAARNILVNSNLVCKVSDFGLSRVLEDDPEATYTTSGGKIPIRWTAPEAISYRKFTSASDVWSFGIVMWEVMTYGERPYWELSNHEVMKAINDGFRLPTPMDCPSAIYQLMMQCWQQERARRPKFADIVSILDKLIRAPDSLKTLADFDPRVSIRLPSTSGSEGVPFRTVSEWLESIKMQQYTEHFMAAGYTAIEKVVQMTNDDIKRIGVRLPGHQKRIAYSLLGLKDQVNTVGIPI
UniProt P06276, whole entry, looked up: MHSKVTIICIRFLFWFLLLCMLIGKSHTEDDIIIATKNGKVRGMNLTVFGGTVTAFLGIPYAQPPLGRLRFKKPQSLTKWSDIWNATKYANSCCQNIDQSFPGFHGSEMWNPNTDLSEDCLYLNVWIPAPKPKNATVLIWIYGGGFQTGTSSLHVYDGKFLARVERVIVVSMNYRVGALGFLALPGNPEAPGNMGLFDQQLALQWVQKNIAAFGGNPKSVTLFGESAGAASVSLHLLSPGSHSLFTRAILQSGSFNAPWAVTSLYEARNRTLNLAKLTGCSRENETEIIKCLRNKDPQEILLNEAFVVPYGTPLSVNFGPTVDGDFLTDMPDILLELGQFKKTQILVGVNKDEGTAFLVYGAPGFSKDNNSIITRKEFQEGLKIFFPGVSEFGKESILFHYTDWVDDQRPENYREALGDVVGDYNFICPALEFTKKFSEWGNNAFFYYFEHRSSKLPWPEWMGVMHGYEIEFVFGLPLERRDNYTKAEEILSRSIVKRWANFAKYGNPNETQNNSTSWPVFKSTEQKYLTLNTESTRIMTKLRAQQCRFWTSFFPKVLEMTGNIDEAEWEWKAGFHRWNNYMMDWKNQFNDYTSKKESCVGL
UniProt P67775, whole entry, looked up: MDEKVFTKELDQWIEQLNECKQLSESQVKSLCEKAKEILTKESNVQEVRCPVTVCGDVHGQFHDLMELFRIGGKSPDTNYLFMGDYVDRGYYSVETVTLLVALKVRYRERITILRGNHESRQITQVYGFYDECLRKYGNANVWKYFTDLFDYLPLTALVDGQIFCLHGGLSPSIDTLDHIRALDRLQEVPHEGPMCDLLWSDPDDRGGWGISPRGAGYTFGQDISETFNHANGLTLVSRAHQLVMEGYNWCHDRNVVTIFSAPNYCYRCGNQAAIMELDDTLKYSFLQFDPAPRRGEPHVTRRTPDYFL
UniProt Q05209: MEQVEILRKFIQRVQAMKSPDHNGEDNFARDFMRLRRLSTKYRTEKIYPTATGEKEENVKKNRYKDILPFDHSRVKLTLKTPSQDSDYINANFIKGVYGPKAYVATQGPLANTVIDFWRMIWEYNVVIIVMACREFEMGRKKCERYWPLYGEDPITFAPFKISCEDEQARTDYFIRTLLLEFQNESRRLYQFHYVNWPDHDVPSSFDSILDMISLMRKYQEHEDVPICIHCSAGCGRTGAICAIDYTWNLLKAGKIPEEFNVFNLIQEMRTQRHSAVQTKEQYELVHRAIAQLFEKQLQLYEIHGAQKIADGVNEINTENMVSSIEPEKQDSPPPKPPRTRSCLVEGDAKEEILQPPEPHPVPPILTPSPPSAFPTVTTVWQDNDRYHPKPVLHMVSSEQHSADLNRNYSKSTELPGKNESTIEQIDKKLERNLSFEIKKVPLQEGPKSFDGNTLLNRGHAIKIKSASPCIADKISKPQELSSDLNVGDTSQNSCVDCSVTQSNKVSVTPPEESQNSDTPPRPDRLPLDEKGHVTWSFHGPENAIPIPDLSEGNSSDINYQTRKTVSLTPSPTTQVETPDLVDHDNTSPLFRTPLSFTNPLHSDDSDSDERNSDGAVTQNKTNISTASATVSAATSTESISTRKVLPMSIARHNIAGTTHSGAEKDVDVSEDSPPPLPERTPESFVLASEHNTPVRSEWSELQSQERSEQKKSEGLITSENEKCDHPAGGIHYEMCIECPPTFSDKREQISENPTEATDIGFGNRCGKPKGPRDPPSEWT
UniProt Q8IXJ6: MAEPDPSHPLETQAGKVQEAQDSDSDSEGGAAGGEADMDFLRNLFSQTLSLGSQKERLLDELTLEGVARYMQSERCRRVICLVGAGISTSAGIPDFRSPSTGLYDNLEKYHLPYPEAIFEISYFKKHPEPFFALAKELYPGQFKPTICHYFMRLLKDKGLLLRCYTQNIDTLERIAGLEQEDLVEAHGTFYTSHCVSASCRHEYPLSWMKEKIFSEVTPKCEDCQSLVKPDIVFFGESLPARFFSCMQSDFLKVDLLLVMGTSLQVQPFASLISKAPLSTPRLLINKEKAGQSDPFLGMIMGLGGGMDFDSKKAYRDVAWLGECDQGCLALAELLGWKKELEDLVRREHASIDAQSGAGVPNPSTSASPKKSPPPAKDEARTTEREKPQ
UniProt P28190, whole entry, looked up: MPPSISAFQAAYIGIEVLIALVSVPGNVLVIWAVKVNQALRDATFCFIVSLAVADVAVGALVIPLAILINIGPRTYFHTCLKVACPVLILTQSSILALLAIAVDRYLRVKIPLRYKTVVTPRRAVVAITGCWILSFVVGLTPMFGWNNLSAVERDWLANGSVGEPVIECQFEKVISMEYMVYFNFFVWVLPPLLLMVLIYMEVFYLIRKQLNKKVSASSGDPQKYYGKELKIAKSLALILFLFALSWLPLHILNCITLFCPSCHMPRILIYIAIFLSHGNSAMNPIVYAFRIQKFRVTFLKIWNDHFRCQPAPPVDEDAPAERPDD
UniProt P08588, whole entry, looked up: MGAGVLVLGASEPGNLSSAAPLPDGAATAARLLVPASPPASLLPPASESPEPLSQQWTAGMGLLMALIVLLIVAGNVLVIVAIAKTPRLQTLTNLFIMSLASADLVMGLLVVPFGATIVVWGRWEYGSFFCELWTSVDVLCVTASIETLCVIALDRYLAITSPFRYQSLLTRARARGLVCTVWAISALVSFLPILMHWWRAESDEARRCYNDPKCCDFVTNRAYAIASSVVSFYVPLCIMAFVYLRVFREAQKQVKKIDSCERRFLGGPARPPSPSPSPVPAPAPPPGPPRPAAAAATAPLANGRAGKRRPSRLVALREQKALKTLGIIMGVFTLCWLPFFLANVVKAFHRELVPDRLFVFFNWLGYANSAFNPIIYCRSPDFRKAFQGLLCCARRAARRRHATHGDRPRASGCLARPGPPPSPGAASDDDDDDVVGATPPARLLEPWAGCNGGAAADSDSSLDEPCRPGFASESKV
UniProt P37288, whole entry, looked up: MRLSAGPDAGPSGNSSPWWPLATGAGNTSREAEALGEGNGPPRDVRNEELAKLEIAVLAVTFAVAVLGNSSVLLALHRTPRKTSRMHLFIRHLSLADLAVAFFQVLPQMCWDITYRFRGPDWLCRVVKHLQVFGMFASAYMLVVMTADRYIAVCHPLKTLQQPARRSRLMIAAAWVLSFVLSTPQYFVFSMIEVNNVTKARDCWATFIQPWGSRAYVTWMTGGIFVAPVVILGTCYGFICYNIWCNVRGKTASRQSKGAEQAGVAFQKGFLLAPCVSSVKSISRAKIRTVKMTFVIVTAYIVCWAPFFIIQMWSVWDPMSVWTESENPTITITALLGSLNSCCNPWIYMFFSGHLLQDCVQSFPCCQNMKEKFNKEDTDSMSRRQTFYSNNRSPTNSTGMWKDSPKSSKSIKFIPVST
UniProt P46098, whole entry, looked up: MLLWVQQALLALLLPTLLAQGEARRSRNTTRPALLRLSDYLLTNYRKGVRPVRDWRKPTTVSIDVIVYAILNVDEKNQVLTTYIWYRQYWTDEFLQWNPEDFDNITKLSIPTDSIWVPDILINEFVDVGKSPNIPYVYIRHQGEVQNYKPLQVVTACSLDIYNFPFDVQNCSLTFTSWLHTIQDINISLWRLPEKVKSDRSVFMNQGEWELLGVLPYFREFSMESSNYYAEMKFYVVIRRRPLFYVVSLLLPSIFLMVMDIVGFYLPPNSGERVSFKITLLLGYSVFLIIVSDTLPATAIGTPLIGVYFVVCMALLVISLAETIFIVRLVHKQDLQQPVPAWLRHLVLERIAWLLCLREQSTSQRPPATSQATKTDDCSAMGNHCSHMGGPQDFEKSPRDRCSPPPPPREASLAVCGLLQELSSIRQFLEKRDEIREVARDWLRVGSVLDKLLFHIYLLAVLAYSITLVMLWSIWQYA

Assays:
[1] = CCTE_Mundy_HCI_hN2_NOG_NeuriteCount: CCTE's Neurite Outgrowth Assay in human hN2 cells for Neurite Count, Mundy Lab (AID 2284219)
Procedure, shortened: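 In this morphology assay, hNP1-derived neurons received test chemical 2 h post-plating and were fixed two days later in warm paraformaldehyde/sucrose containing Hoechst 33342. Neurites, labelled by rabbit anti-βIII-tubulin (1:800) and Alexa Fluor-488 (1:500), were counted automatically.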

[2] = CCTE_Mundy_HCI_hN2_NOG_NeuriteLength: CCTE's Neurite Outgrowth Assay in human hN2 cells for Neurite Length, Mundy Lab (AID 2284220)
Procedure, shortened: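 Plate hNP1-derived neurons, then add chemical 2 h later as a 1/10 dilution. Stain with anti-βIII-tubulin then Alexa Fluor-488 secondary, and image automatically to measure neurite length.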

[3] = CCTE_Mundy_HCI_hN2_NOG_NeuronCount: CCTE's Neurite Outgrowth Assay in human hN2 cells for Neuron Count, Mundy Lab (AID 2284221)
Procedure, shortened: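 Read-out is the number of betaIII-tubulin-positive neurons imaged by automated high-content analysis, with DMSO as negative control.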

[4] = target: human Thromboxane A2 Receptor (TXA2), TBXA2R (gene 6915) (UniProt P21731); experiment: NVS_GPCR_hTXA2: NovaScreen (NVS) G Protein-Coupled Receptor Assay for human Thromboxane A2 Receptor (TXA2) (AID 2283282);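 further: actives reduce bound radioligand signal relative to DMSO baseline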
Procedure, shortened: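 Biochem binding, human platelets, cell-free; competitive radioligand displacement; 1 h; filter radiodetection. 25 uM duplicate primary, conc. series secondary; DMSO neg. ctrl.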

[5] = ArunA_NOG_NucleusCount: ArunA Biomedical's Neurite Outgrowth (NOG) Assay for Nucleus Count (AID 2283756)
Procedure, shortened: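 Viable neuron count, from Hoechst nuclei passing size and intensity gates, imaged at 20x on differentiated H9-derived human neurons. Exposure lasted 48 h from seeding; activity was scored relative to DMSO.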

[6] = ATG_M_61_XSP2: Attagene TRANS-FACTORIAL Multi-Species (XSP2) HepG2 Assay for M61 Transcription Factor (Internal Marker) (AID 2283835; active means hit-call score of the fitted dose curve at least 0.9, where 1 is the maximum; inactive means score below 0.9;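 further: active means a rise in signal above the DMSO baseline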)
Procedure, shortened: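 Internal background marker, read as RT-PCR/capillary-electrophoresis reporter mRNA 24 h post-dose in transiently transfected HepG2 cells. Androgen receptor stimulated with 3 nM 6-alpha-fluorotestosterone plus 1.5 nM norgestrel; gain of signal versus DMSO analysed.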

[7] = target: human Ephrin type-A Receptor 2 (EphA2), EPHA2 (gene 1969) (UniProt P29317); experiment: NVS_ENZ_hEphA2: NovaScreen (NVS) Enzymatic Assay for human Ephrin type-A Receptor 2 (EphA2) (AID 2283155)
Procedure, shortened: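 Enzyme activity of recombinant EphA2 read by fluorescence after mobility-shift separation, 1 h after dosing. Chemicals first tested at 25 uM (duplicate); those passing threshold run as concentration series, top 50 uM, single replicate, relative to DMSO.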

[8] = target: human Esterase Plasma (ES), BCHE (gene 590) (UniProt P06276); experiment: NVS_ENZ_hES: NovaScreen (NVS) Enzymatic Assay for human Esterase Plasma (ES) (AID 2283157)
Procedure, shortened: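 Primary single-concentration screen at 25 uM in duplicate, then concentration-response to a 50 uM top dose. Human plasma esterase activity detected colorimetrically after 0.25 h incubation, with DMSO as baseline.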

PPP2CA (gene 5515) = PPP2CA (gene 5515) (UniProt P67775); experiment: NVS_ENZ_hPPP2CA: NovaScreen (NVS) Enzymatic Assay for human Protein Phosphatase 2 Aatalytic subunit Alpha (PPP2CA) (AID 2283199)
Procedure, shortened: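 Cell-free phosphatase activity: fluorescent substrate turnover by recombinant human enzyme, resolved by mobility shift at 1.33 h. Compounds passing the 25 uM duplicate primary screen were rerun in singleton series with a 50 uM top concentration.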

[9] = target: Tyrosine-protein phosphatase non-receptor type 12 (Homo sapiens) (UniProt Q05209); experiment: NVS_ENZ_hPTPN12: NovaScreen (NVS) Enzymatic Assay for human Protein Tyrosine Phosphatase Non-receptor Type 12 (PTPN12) (AID 2283204)
Procedure, shortened: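 Single-concentration duplicates (25 uM) preceded singleton concentration-response up to 50 uM for chemicals passing threshold. Cell-free recombinant PTPN12 activity was read 1.33 h after dosing via fluorescence after mobility-shift separation; loss of signal versus DMSO.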

[10] = target: human Sirtuin 2 (SIRT2), SIRT2 (gene 22933) (UniProt Q8IXJ6); experiment: NVS_ENZ_hSIRT2: NovaScreen (NVS) Enzymatic Assay for human Sirtuin 2 (SIRT2) (AID 2283217)
Procedure, shortened: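 Single-point duplicate screen at 25 uM, then concentration-response (max 50 uM) for chemicals passing threshold. Enzyme activity of recombinant human SIRT2 measured after 1 hr by fluorescence with mobility-shift separation of product; DMSO baseline.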

[11] = system: bovine Angiotensin II Receptor Type 2 (AT2), gene 407157; experiment: NVS_GPCR_bAT2: NovaScreen (NVS) G Protein-Coupled Receptor Assay for bovine Angiotensin II Receptor Type 2 (AT2) (AID 2283240)
Procedure, shortened: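 Radioligand displacement on bovine cerebellar membranes, 1 hour incubation, filter-based scintillation counting; loss of signal vs DMSO. Duplicate single-point screen at 25 uM, then concentration-response to 50 uM maximum.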

[12] = target: Adenosine receptor A1 (Bos taurus) (UniProt P28190); experiment: NVS_GPCR_bAdoR_NonSelective: NovaScreen (NVS) G Protein-Coupled Receptor Assay for bovine Adenosine Receptor (AdoR), Non-selective Binding (AID 2283244)
Procedure, shortened: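 Cell-free binding with membranes from bovine striatum: radioligand displaced by test chemical, read after 1 h by filtration and scintillation. Single-point 25 uM duplicate primary, 50 uM top concentration in follow-up curves, DMSO baseline.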

[13] = system: guinea pig Muscarinic, Peripheral (Mperiperal) Receptor, Non-selective Binding, gene 100379235; experiment: NVS_GPCR_gMPeripheral_NonSelective: NovaScreen (NVS) G Protein-Coupled Receptor Assay for guinea pig Muscarinic, Peripheral (Mperiperal) Receptor, Non-selective Binding (AID 2283250)
Procedure, shortened: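 Screened in duplicate at 25 uM, hits retested in concentration series to 50 uM max, using bladder membrane radioligand displacement from guinea pig. Filtration and scintillation counting 1 h post-dose, fitted relative to DMSO.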

[14] = target: human Adenosine A2a Receptor (AdoRA2a), ADORA2A (gene 135) (UniProt P29274); experiment: NVS_GPCR_hAdoRA2a: NovaScreen (NVS) G Protein-Coupled Receptor Assay for human Adenosine A2a Receptor (AdoRA2a) (AID 2283256)
Procedure, shortened: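 Compounds screened in duplicate at 25 uM, with actives followed up in concentration series, for displacement of a radioligand from HEK293-derived receptor protein. Bound counts read by filter scintillation at 1.5 hours, DMSO as baseline.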

[15] = target: human Adrenergic, Beta 1 Receptor (Adrb1), ADRB1 (gene 153) (UniProt P08588); experiment: NVS_GPCR_hAdrb1: NovaScreen (NVS) G Protein-Coupled Receptor Assay for human Adrenergic, Beta 1 Receptor (Adrb1) (AID 2283258)
Procedure, shortened: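 Membranes/protein extracted from human neuroepithelioma cells, radioligand competition binding read by filtration and scintillation 2 h post-dose. Single 25 uM duplicate screen, then concentration-response follow-up; DMSO as negative control.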

[16] = target: human Vasopressin 1A Receptor (V1A), AVPR1A (gene 552) (UniProt P37288); experiment: NVS_GPCR_hV1A: NovaScreen (NVS) G Protein-Coupled Receptor Assay for human Vasopressin 1A Receptor (V1A) (AID 2283284)
Procedure, shortened: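 Single-concentration duplicate screen at 25 uM, with concentration-response follow-up (top 50 uM) for actives. The assay measured displacement of a radioligand from human platelet-derived receptor after 1.5 h, detected by filtration and scintillation counting.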

[17] = target: human Serotonin, 5-Hydroxytryptamine Receptor 3 (5HT3), HTR3A (gene 3359) (UniProt P46098); experiment: NVS_LGIC_h5HT3: NovaScreen (NVS) Ligand-Gated Ion Channel Assay for human Serotonin, 5-Hydroxytryptamine Receptor 3 (5HT3) (AID 2283325)
Procedure, shortened: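 Initially tested at 25 uM in duplicate, then up to 50 uM in concentration-response for actives, compounds competed with a radioligand for HEK293-derived human 5-HT3 receptor. Bound counts were measured by filtration and scintillation at 1 h; loss of signal versus DMSO.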

[18] = ArunA_Migration_hNP: ArunA Biomedical's Oris Neuroprogenitor (hNP) Cell Migration Assay (AID 2283754)
Procedure, shortened: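 Readout is calcein-AM fluorescence (ex494/em517) of cells migrating into the detection zone, relative to DMSO. hNP1 cells (H9-derived) grown on Matrigel behind stoppers 16 h, then stoppers pulled and chemical applied 72 h; cytochalasin D as control.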

[19] = system: zebrafish Estrogen Receptor (ESR2B), gene 317733; experiment: ATG_zfER2b_XSP1: Attagene TRANS-FACTORIAL Multi-Species (XSP1) HepG2 Assay for zebrafish Estrogen Receptor (ESR2B) (AID 2283773)
Procedure, shortened: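 Medium contained 3 nM 6-alpha-fluorotestosterone. Reporter mRNA induction by exogenous zebrafish ER2b-Gal4 chimera was read 24 h post-dose in transiently transfected HepG2 cells, using RT-PCR, fluorescent labelling, HpaI digestion and capillary electrophoresis.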

Measured: AC50

CC1(C)[C@H](C(=O)O[C@H](C#N)c2cccc(Oc3ccccc3)c2)[C@@H]1C=C(Br)Br
inconclusive: [1] 0.0454 µM | [2] 0.042 µM | [3] 0.0283 µM

O=P(Oc1ccccc1)(Oc1ccccc1)Oc1ccccc1
inactive: [5] | [6]
inconclusive: [4] 0.526 µM

O=S(=O)(O)C(F)(F)C(F)(F)C(F)(F)C(F)(F)C(F)(F)C(F)(F)C(F)(F)C(F)(F)F
inconclusive: [8] 25 µM | [11] 24 µM | [12] 1.34 µM | [13] 26.9 µM | [15] 1.37 µM | [16] 40.6 µM | [17] 25 µM
active: [7] 15.8 µM | PPP2CA (gene 5515) 7.02 µM and 5.37 µM | [9] 20.7 µM and 30 µM and 30.1 µM | [10] 6.66 µM | [14] 6.28 µM [middle of 5 runs]
inactive: [18] | [19]
